These are yes or no findings as the source states them, for the method shown. For some of these results: In cells and extracts the contact can be indirect. Some binding calls cover weakened binding; strength is not graded here. Blank lines part the entries; values can stand above or below the substance they belong to.
Tests used:
[1] = molecular target: HOXA10 (yeast two-hybrid) (human) (UniProt P31260); assay: two-hybrid; yeast two-hybrid technique; no details given
[2] = molecular target: Myc-HOXA10 (Homeobox A10) (human) (UniProt P31260); assay: co-IP; 293T cells co-transfected for 48 h; lysis in 50 mM Tris-HCl pH 7.6, 1.0% NP-40, 150 mM NaCl; anti-Myc beads or anti-Flag M2 beads at 4 °C overnight; Western blot with anti-Flag-HRP and anti-Myc-HRP
Myc-HOXA10^T362A (human) = Myc-HOXA10^T362A (human) (UniProt P31260); assay: as above
[3] = molecular target: endogenous MEKK4 (human (endogenous in Ishikawa)) (UniProt Q9Y6R4); assay: co-IP; anti-MEKK4 endogenous immunoprecipitation from Ishikawa cell lysates, Western blot; mouse IgG as negative control

Sequences of proteins named here, by UniProt entry; tags and fusion partners are left off. A change or cut given only in a name is not applied to a line headed by its entry.
UniProt P31260: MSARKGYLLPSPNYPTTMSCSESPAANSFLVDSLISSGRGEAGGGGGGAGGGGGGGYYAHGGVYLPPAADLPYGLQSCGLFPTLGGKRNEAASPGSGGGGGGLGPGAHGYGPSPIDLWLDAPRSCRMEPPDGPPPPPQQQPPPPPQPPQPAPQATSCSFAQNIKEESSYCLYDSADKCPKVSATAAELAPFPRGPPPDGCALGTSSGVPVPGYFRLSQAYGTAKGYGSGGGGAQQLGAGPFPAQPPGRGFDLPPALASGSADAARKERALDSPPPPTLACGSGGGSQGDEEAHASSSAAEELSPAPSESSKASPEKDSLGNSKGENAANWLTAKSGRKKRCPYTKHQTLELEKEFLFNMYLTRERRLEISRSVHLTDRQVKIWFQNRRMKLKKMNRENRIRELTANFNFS
UniProt Q9Y6R4: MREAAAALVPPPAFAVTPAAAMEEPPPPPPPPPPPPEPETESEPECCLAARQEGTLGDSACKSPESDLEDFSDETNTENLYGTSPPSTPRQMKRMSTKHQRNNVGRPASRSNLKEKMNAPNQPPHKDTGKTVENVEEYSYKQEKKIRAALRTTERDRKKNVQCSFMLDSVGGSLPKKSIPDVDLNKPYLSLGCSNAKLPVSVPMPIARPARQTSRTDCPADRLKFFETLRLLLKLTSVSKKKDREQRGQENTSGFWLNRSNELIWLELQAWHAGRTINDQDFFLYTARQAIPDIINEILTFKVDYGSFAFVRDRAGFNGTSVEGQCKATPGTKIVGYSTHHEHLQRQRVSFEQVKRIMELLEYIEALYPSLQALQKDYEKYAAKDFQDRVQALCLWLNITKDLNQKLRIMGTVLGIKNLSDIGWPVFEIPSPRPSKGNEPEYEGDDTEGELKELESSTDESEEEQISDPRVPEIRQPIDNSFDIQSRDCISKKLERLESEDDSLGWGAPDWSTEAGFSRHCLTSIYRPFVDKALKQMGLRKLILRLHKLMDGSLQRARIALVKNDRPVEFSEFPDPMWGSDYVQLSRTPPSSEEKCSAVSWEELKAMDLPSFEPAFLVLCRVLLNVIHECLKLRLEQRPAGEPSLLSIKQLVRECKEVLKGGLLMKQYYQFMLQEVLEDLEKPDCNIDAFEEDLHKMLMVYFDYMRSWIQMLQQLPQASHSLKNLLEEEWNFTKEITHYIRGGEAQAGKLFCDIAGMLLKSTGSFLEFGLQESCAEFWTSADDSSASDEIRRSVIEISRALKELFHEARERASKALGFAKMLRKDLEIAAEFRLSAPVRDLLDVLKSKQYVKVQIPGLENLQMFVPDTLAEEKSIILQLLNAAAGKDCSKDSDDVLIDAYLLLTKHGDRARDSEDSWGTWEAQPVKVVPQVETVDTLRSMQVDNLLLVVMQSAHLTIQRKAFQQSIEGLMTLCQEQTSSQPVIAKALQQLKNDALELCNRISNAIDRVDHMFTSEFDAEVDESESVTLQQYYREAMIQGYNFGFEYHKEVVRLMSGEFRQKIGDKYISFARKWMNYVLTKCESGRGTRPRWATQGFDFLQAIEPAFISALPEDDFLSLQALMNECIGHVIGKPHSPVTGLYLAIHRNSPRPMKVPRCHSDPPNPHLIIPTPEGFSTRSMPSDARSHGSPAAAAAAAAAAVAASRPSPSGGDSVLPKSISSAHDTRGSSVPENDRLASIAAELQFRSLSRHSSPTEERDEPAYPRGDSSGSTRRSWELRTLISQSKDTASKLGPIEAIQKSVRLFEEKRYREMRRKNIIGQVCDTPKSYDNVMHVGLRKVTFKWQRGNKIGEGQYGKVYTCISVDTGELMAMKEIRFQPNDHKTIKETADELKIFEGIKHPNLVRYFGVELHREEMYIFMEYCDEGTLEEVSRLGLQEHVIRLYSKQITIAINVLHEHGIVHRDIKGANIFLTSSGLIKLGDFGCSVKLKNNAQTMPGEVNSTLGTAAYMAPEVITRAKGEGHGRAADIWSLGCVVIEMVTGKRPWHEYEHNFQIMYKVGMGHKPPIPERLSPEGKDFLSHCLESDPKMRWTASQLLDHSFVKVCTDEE

binding [1]: binds
Substance: MEKK4 (yeast two-hybrid) (from UniProt Q9Y6R4 1-1608) (enzyme)

binding [2]: binds
binding (Myc-HOXA10^T362A (human)): binds
Substance: MEKK4-Flag (Mitogen-activated protein kinase kinase kinase 4) (from UniProt Q9Y6R4 1-1608) (enzyme)

binding [3]: binds
Substance: endogenous HOXA10 (from UniProt P31260 1-410)

From article PMC9550837
